Assay [1] concerns the target T1, Tks5-BirA* (wild type Tks5α fused to the N-terminus of BirA*-HA) (UniProt Q5TCZ1).
T1 sequence: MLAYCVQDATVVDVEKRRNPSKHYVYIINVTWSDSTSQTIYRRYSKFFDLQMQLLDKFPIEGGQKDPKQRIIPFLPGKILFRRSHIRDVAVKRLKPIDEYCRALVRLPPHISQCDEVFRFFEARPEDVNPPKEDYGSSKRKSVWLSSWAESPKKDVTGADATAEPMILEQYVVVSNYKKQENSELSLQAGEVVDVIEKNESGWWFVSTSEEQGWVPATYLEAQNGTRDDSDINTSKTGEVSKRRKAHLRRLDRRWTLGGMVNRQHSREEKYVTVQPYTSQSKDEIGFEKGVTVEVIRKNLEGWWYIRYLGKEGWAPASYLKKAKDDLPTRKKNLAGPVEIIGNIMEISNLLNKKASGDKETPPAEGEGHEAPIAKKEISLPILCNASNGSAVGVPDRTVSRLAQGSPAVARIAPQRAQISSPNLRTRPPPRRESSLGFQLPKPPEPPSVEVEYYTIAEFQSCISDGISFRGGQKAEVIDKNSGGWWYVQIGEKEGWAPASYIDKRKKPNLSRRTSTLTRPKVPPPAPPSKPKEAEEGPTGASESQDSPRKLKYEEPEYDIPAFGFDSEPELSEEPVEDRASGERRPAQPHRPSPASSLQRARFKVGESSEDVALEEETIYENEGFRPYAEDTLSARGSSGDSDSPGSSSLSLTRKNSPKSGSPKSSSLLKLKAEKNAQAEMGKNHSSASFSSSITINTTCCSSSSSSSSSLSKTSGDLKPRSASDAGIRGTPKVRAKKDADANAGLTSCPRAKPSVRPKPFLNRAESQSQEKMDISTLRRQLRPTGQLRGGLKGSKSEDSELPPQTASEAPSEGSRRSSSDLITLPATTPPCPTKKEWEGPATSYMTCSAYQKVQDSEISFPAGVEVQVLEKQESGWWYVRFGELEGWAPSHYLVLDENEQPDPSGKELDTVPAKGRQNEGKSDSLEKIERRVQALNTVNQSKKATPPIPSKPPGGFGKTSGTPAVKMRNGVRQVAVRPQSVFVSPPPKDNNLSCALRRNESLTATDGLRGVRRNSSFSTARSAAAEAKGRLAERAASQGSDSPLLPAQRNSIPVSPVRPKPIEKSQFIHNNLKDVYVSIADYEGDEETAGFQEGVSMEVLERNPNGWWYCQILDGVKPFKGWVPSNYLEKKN
Nature of the assay: proximity labelling; BioID in living MDA-MB-231 cells stably expressing the BirA* fusion, seeded on gelatin, 50 uM biotin for 16 h; avidin-bead capture; LC-MS/MS with label-free quantification against the BirA* control pulldown, 1% permutation FDR.

The chains behind the UniProt entries cited, without tags or fusion partners. Where a name states a change or a piece, a line headed by the entry shows the natural chain unless it says otherwise.
UniProt P06709: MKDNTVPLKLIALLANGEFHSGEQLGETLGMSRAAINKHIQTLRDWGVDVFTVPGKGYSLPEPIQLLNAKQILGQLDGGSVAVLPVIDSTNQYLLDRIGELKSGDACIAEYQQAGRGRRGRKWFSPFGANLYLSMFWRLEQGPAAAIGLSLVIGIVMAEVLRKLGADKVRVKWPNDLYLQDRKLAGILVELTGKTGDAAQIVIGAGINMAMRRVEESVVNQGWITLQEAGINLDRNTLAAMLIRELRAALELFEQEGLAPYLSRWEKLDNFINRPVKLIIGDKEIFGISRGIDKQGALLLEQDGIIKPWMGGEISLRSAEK
UniProt Q07157: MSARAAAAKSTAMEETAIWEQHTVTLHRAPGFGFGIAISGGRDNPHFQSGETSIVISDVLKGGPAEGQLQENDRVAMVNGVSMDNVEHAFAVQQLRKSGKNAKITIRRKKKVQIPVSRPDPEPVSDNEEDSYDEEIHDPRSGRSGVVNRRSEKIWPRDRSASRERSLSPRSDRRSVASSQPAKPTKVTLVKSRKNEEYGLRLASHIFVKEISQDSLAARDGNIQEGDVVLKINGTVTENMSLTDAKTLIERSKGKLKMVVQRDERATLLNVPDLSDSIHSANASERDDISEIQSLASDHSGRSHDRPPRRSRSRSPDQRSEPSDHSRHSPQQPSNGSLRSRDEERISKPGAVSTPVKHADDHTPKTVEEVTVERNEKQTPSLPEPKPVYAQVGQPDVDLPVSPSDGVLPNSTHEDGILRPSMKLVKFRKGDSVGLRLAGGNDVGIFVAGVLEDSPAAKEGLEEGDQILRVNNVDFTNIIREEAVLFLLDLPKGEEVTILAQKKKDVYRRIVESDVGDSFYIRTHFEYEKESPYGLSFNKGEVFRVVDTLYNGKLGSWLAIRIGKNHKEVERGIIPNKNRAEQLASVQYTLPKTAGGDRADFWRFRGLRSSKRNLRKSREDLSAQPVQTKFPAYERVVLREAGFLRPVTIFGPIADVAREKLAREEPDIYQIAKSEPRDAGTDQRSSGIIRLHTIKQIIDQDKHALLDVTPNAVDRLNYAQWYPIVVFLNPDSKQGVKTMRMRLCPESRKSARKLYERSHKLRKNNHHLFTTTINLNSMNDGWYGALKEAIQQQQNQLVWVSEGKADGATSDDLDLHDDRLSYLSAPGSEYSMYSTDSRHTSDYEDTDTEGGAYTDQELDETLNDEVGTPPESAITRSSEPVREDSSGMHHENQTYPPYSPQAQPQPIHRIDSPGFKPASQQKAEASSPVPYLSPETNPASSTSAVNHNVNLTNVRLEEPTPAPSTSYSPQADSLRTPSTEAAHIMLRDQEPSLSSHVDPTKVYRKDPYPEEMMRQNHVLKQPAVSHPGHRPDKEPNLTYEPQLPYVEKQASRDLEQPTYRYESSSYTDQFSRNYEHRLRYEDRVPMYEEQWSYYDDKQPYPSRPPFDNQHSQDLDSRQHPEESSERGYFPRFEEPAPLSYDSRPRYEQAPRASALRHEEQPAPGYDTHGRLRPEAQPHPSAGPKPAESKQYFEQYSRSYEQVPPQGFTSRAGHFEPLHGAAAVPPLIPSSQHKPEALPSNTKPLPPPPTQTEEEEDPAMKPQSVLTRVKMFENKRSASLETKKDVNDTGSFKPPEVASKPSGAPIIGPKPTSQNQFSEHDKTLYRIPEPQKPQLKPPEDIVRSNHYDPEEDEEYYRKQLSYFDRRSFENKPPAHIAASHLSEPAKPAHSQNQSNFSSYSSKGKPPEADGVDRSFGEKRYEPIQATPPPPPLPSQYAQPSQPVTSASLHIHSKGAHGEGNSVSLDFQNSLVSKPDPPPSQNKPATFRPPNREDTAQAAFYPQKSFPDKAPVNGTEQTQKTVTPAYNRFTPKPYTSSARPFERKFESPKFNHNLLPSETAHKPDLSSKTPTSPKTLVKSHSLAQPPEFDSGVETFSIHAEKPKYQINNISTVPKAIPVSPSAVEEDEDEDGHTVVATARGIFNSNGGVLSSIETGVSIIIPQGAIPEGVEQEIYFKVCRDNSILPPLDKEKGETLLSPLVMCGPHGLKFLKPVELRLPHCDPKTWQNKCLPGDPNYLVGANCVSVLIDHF
UniProt Q70E73: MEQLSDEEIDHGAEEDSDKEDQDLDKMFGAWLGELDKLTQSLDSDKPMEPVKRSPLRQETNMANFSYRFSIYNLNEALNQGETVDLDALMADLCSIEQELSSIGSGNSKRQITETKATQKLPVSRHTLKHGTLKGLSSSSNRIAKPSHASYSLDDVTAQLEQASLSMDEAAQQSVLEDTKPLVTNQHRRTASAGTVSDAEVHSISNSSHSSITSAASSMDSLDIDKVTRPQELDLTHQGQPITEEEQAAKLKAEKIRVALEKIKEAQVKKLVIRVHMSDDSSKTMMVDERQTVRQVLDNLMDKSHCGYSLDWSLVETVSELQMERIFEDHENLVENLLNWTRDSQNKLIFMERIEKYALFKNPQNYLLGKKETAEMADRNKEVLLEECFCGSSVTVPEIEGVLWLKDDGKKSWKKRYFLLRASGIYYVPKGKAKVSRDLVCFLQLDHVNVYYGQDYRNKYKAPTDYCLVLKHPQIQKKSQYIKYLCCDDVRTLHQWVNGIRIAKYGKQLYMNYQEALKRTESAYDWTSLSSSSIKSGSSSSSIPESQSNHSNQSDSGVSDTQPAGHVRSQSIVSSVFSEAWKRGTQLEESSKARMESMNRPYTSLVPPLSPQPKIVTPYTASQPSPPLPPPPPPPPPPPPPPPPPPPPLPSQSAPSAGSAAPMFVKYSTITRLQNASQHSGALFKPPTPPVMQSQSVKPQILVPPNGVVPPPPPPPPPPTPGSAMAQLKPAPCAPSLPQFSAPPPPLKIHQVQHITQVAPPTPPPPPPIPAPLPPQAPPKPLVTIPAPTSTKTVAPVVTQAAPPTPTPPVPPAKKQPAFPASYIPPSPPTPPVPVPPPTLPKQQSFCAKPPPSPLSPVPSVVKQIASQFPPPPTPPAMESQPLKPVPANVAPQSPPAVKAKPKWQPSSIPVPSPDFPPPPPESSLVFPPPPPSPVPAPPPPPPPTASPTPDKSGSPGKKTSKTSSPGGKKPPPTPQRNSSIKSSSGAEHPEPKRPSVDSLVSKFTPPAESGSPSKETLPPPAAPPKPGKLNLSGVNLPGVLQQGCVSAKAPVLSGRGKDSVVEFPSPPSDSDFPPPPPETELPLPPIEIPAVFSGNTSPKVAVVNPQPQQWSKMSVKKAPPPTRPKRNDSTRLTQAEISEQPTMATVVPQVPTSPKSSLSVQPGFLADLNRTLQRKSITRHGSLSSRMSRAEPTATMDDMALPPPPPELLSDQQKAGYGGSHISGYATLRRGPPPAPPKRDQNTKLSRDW
UniProt O75815: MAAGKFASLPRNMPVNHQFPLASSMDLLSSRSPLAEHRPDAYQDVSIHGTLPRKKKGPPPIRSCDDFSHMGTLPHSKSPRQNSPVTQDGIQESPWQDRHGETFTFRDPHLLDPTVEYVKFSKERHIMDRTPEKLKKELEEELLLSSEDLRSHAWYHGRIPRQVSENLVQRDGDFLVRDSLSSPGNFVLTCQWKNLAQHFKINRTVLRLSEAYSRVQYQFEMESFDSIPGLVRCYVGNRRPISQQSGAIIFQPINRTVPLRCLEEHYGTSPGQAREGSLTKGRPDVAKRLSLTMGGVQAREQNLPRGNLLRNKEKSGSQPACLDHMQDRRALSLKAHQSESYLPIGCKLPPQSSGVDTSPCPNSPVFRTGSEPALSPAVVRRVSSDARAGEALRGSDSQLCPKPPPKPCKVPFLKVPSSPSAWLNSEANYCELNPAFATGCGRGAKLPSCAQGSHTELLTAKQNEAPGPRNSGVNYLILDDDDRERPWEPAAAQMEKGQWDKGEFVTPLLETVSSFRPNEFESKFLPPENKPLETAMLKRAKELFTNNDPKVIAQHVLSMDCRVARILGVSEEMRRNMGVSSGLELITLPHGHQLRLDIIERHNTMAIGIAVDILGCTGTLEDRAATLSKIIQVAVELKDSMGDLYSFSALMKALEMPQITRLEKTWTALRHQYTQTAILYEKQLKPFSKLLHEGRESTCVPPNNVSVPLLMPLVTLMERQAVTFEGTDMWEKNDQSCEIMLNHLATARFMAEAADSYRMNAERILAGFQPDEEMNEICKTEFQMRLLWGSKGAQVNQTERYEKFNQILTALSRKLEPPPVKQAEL
UniProt P27816: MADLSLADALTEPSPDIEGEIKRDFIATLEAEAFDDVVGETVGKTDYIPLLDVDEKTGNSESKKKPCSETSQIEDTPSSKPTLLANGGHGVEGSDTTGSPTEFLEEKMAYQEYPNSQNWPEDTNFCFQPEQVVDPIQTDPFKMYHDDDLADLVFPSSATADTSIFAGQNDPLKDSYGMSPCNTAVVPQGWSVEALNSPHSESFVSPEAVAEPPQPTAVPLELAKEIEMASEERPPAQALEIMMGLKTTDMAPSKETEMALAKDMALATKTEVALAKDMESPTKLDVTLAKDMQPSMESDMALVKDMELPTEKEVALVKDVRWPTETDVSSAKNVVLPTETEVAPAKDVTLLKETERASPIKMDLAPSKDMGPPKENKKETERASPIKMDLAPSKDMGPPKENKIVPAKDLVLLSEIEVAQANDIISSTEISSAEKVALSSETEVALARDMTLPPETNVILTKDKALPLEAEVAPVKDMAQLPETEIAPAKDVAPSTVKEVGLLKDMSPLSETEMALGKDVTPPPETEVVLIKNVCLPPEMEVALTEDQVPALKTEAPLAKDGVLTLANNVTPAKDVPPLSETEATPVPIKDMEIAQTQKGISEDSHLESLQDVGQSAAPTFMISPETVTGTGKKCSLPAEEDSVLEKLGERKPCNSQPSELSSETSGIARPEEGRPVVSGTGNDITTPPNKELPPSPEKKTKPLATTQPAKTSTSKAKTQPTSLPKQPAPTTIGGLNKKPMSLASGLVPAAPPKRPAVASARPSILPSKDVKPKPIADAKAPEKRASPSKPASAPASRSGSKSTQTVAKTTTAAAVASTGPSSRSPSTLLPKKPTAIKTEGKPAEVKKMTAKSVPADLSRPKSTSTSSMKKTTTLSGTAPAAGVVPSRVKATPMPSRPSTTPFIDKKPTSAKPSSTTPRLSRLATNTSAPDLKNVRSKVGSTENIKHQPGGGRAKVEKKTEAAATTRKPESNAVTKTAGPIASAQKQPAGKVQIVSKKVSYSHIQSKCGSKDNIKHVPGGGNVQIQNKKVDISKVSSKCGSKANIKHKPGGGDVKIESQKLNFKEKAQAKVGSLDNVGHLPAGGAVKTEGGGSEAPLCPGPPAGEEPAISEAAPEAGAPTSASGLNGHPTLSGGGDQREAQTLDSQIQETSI
UniProt Q9Y6M1: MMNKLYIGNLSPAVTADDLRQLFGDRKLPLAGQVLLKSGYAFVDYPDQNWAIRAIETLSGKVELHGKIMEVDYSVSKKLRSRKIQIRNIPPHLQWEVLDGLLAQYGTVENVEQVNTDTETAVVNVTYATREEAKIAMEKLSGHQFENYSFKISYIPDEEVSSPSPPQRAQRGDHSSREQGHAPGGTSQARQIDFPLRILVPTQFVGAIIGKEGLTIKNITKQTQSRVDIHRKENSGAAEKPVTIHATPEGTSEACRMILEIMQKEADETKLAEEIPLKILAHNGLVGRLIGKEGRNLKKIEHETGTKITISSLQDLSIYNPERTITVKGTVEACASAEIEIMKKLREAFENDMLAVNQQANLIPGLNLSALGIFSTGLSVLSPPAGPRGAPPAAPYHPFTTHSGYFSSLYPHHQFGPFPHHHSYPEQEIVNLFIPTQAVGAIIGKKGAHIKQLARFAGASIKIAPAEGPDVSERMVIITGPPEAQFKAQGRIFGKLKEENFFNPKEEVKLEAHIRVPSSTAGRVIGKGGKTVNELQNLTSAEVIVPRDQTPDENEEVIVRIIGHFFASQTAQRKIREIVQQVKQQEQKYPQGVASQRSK
UniProt O00151: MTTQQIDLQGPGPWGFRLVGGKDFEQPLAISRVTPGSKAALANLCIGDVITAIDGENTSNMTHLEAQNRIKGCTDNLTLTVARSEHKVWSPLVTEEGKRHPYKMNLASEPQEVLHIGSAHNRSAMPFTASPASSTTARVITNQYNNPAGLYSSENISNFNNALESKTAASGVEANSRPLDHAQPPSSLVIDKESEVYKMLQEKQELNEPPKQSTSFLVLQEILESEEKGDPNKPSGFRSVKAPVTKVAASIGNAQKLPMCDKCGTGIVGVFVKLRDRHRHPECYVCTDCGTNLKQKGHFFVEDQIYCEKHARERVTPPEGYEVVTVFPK
UniProt P62993: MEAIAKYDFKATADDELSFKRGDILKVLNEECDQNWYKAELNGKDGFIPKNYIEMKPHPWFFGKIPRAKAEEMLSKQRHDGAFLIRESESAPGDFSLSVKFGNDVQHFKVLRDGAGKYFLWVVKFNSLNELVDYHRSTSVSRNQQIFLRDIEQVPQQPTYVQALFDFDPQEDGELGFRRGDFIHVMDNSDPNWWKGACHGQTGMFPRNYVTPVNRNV

The target in assay [2] is T1, Tks5-BirA* (wild type Tks5α fused to the N-terminus of BirA*-HA). The experiment in a line: proximity labelling; BioID in living MDA-MB-231 cells stably expressing the BirA* fusion, seeded on gelatin, 50 uM biotin for 16 h; lysis (500 mM NaCl, 0.4% SDS, 2% Triton X-100); biotinylated proteins captured on avidin-coated beads; western blot with specific antibodies; also after knock-down of endogenous Tks5 (biotinylation unchanged).

The target of assay [3] is BirA* alone (BirA(R118G)-HA) (UniProt P06709). The assay is described as above.
The target in assay [4] is T1, Tks5-BirA* (wild type Tks5α fused to the N-terminus of BirA*-HA). The description is as above. This is another data set of the same source.
Assay [5] has as its target ΔPX-Tks5-BirA* (Tks5α lacking its PX domain fused to the N-terminus of BirA*-HA). The description is as above.
For assay [6], the target named is T2, Tks5-BirA* (wild type Tks5α fused to the N-terminus of BirA*-HA), Q5TCZ1.
T2 chain: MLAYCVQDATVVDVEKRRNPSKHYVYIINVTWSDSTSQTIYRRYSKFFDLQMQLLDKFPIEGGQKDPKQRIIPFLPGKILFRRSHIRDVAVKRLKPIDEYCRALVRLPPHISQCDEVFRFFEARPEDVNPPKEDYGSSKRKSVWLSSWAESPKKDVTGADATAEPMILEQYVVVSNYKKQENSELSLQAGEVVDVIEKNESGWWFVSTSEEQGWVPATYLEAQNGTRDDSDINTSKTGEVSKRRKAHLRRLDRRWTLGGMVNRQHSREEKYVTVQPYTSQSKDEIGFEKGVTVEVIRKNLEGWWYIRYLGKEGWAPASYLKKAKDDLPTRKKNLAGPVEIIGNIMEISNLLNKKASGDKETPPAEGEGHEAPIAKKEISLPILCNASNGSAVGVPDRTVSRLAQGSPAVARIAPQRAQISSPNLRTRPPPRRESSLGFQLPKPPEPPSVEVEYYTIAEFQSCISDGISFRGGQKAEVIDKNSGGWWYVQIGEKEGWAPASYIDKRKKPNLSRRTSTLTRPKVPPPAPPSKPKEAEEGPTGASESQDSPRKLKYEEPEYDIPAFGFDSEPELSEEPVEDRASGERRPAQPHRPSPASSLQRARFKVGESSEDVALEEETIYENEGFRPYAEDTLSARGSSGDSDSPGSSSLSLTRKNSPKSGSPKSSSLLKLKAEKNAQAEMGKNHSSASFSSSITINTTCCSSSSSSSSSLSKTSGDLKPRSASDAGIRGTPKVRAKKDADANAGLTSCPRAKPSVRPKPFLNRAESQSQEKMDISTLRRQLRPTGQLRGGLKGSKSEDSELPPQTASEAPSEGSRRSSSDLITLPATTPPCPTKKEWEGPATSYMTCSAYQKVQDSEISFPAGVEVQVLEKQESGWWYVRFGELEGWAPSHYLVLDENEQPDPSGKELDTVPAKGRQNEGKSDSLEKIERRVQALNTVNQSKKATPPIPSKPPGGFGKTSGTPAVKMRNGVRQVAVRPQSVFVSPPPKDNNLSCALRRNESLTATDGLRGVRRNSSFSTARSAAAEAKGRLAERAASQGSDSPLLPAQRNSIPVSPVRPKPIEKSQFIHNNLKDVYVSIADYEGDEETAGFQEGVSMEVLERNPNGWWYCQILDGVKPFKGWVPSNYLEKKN
Nature of the assay: proximity labelling; BioID in living MDA-MB-231 cells stably expressing the BirA* fusion, seeded on gelatin, 50 uM biotin for 16 h; avidin-bead capture; LC-MS/MS with label-free quantification against the BirA* control pulldown, 1% permutation FDR. Conditions: remark: other sources report otherwise.

Assay [7] has as its target T2, Tks5-BirA* (wild type Tks5α fused to …). The experiment in a line: proximity labelling; BioID in living MDA-MB-231 cells stably expressing the BirA* fusion, seeded on gelatin, 50 uM biotin for 16 h; lysis (500 mM NaCl, 0.4% SDS, 2% Triton X-100); biotinylated proteins captured on avidin-coated beads; western blot with specific antibodies; also after knock-down of endogenous Tks5 (biotinylation unchanged). Conditions: remark: other sources report otherwise. For orientation: In western blotting, separated proteins are transferred to a membrane and probed.

Experimental findings from article PMC7176661 are described below.

No constants are given. Whether binding was seen depends on the method and setting. Binding seen in cells or lysates may run through a third protein. These calls come from enrichment with a bait or labelling near it, and not all partners need be listed. For part of these data: A no says only that the protein was not detected with the bait. For part of these data: Tags and fused reporters may be left off the sequences shown.

In the case of “Dihydropyrimidase-like protein 3 (from UniProt Q14195 1-570)”, the binding result in assay [1] was “binds”.
Turning to “Drebrin-like protein (from UniProt Q9UJU6 1-430)”, in assay [1], the binding entry is “binds”.
On the same count and under the same terms, under “zonula occludens protein ZO-1/TJP1 (from UniProt Q07157 1-1748)” stands “binds”; under “anthrax toxin and collagen I receptor ANTXR1/TEM8 (from UniProt Q9H6X2 33-564)”, “binds”; under “Ras-associated and pleckstrin homology containing protein 1 (from UniProt Q70E73 1-1250)”, “binds”.
Still for that read-out and setting: the result for “breast cancer anti-estrogen resistance protein 3 (from UniProt O75815 1-825)” reads “binds”.
“microtubule-associated protein 4 (from UniProt P27816 1-1152)”: the binding entry in assay [2] and in assay [1] was “binds” each time.
In the case of Arpin (from UniProt Q7Z6K5 1-226), the binding entry in assay [1] was “binds”.
For “RNA binding protein IGF2BP2/IMP2 (from UniProt Q9Y6M1 1-599)”, the binding entry in assay [1] is reported as “binds”.
With “PDZ and LIM domain protein 1 (from UniProt O00151 1-329)”, the binding result in assay [1] is “binds”.
In the case of N-WASP (from UniProt O00401 1-505), the values for the binding result in assay [2] and in assay [3] were “binds” and “no binding”, respectively.
The corresponding values for Grb2 (from UniProt P62993 1-217) are “no binding” and “no binding”.
For “tight junction protein TJP2 (from UniProt Q9UDY2 1-1190)”, the binding result in assay [1] was “binds”.
Take Reticulon-4 (from UniProt Q9NQC3-2): the binding result in assay [2] is “binds”; in assay [3], “no binding”; in assay [1] it was “binds”.
As for “5′-inositol lipid phosphatase Synaptojanin-1 (from UniProt O43426 1-1573)”, the binding entry in assay [1] is reported as “binds”.

B1: SHC-transforming protein 1 (protein, UniProt P29353 1-583)
chain: MDLLPPKPKYNPLRNESLSSLEEGASGSTPPEELPSPSASSLGPILPPLPGDDSPTTLCSFFPRMSNLRLANPAGGRPGSKGEPGRAADDGEGIVGAAMPDSGPLPLLQDMNKLSGGGGRRTRVEGGQLGGEEWTRHGSFVNKPTRGWLHPNDKVMGPGVSYLVRYMGCVEVLQSMRALDFNTRTQVTREAISLVCEAVPGAKGATRRRKPCSRPLSSILGRSNLKFAGMPITLTVSTSSLNLMAADCKQIIANHHMQSISFASGGDPDTAEYVAYVAKDPVNQRACHILECPEGLAQDVISTIGQAFELRFKQYLRNPPKLVTPHDRMAGFDGSAWDEEEEEPPDHQYYNDFPGKEPPLGGVVDMRLREGAAPGAARPTAPNAQTPSHLGATLPVGQPVGGDPEVRKQMPPPPPCPGRELFDDPSYVNVQNLDKARQAVGGAGPPNPAINGSAPRDLFDMKPFEDALRVPPPPQSVSMAEQLRGEPWFHGKLSRREAEALLQLNGDFLVRESTTTPGQYVLTGLQSGQPKHLLLVDPEGVVRTKDHRFESVSHLISYHMDNHLPIISAGSELCLQQPVERKL
Consider B1, for which the binding entry in assay [1], in assay [4] and in assay [5] was “binds” in each case.

B2: PDZ and LIM domain protein 4 (protein, UniProt P50479 1-330)
chain: MPHSVTLRGPSPWGFRLVGGRDFSAPLTISRVHAGSKAALAALCPGDLIQAINGESTELMTHLEAQNRIKGCHDHLTLSVSRPEGRSWPSAPDDSKAQAHRIHIDPEIQDGSPTTSRRPSGTGTGPEDGRPSLGSPYGQPPRFPVPHNGSSEATLPAQMSTLHVSPPPSADPARGLPRSRDCRVDLGSEVYRMLREPAEPVAAEPKQSGSFRYLQGMLEAGEGGDWPGPGGPRNLKPTASKLGAPLSGLQGLPECTRCGHGIVGTIVKARDKLYHPECFMCSDCGLNLKQRGYFFLDERLYCESHAKARVKPPEGYDVVAVYPNAKVELV
As for B2, the binding entry in assay [1] was “binds”.

B3: formin binding protein FNBP1 (protein, UniProt Q96RU3 1-617)
chain: MSWGTELWDQFDNLEKHTQWGIDILEKYIKFVKERTEIELSYAKQLRNLSKKYQPKKNSKEEEEYKYTSCKAFISNLNEMNDYAGQHEVISENMASQIIVDLARYVQELKQERKSNFHDGRKAQQHIETCWKQLESSKRRFERDCKEADRAQQYFEKMDADINVTKADVEKARQQAQIRHQMAEDSKADYSSILQKFNHEQHEYYHTHIPNIFQKIQEMEERRIVRMGESMKTYAEVDRQVIPIIGKCLDGIVKAAESIDQKNDSQLVIEAYKSGFEPPGDIEFEDYTQPMKRTVSDNSLSNSRGEGKPDLKFGGKSKGKLWPFIKKNKLMSLLTSPHQPPPPPPASASPSAVPNGPQSPKQQKEPLSHRFNEFMTSKPKIHCFRSLKRGLSLKLGATPEDFSNLPPEQRRKKLQQKVDELNKEIQKEMDQRDAITKMKDVYLKNPQMGDPASLDHKLAEVSQNIEKLRVETQKFEAWLAEVEGRLPARSEQARRQSGLYDSQNPPTVNNCAQDRESPDGSYTEEQSQESEMKVLATDFDDEFDDEEPLPAIGTCKALYTFEGQNEGTISVVEGETLYVIEEDKGDGWTRIRRNEDEEGYVPTSYVEVCLDKNAKDS
On to B3, for which the binding entry in assay [1] is recorded as “binds”.

B4: Cortactin, Q14247 1-550 (protein)
chain: MWKASAGHAVSIAQDDAGADDWETDPDFVNDVSEKEQRWGAKTVQGSGHQEHINIHKLRENVFQEHQTLKEKELETGPKASHGYGGKFGVEQDRMDKSAVGHEYQSKLSKHCSQVDSVRGFGGKFGVQMDRVDQSAVGFEYQGKTEKHASQKDYSSGFGGKYGVQADRVDKSAVGFDYQGKTEKHESQRDYSKGFGGKYGIDKDKVDKSAVGFEYQGKTEKHESQKDYVKGFGGKFGVQTDRQDKCALGWDHQEKLQLHESQKDYKTGFGGKFGVQSERQDSAAVGFDYKEKLAKHESQQDYSKGFGGKYGVQKDRMDKNASTFEDVTQVSSAYQKTVPVEAVTSKTSNIRANFENLAKEKEQEDRRKAEAERAQRMAKERQEQEEARRKLEEQARAKTQTPPVSPAPQPTEERLPSSPVYEDAASFKAELSYRGPVSGTEPEPVYSMEAADYREASSQQGLAYATEAVYESAEAPGHYPAEDSTYDEYENDLGITAVALYDYQAAGDDEISFDPDDIITNIEMIDDGWWRGVCKGRYGLFPANYVELRQ
Regarding B4, the binding result in assay [6] and in assay [7] was “binds” in each case.
